From PMC2373309
These are yes or no findings as the source states them, for the method shown. Binding seen in cells or lysates may run through a third protein. Where a sequence is shown, tags or fusion partners need not be part of it.

Amino acid sequences for entries named in this document (tags omitted). Residues count along the entry.
UniProt P11362, residues 22-822: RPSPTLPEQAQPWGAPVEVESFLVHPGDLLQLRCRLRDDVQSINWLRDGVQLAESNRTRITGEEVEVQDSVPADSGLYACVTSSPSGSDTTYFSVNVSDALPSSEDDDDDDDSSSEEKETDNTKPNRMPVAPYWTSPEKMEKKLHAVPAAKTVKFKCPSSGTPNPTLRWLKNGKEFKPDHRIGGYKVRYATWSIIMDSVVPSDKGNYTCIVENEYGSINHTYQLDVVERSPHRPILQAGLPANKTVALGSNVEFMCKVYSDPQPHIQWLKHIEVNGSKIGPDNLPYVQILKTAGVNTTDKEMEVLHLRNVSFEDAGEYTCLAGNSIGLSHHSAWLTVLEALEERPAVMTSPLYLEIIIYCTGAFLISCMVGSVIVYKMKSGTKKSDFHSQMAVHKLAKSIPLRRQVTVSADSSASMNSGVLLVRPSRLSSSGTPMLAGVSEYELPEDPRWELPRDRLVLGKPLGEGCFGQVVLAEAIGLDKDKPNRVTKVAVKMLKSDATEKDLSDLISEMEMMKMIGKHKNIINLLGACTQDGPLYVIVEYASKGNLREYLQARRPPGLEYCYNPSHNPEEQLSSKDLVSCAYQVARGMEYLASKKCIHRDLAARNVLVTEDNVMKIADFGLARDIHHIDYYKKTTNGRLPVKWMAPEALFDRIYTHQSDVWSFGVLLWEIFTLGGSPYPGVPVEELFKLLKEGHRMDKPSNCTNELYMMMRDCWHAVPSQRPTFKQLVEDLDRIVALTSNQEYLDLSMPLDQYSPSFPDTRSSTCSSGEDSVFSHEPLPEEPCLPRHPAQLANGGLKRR

Molecular target: FGFR1 (UniProt P11362)
Experiment: co-IP; lysates from Cos-1 cells transiently co-transfected; immunoprecipitation with anti-FGFR1 antibody, western blot with anti-CAP350 antibody; NP40 1% lysis buffer

“Myc-tagged CAP350 (AA 1-3117) (from UniProt Q5VT06 1-3117)” was tested, and the binding was “no binding”.

B1: Myc-tagged CAP350 C-terminal domain (AA 1896-3117) (domain or fragment, UniProt Q5VT06 1896-3117)
chain: ALAAWDKELIKPKTPKKELEDQRTEQKEIASEEESPVPLYSHLNSESSIPEELGSPAVEYVPSESIGQEQPGSPDHSILTEEMICSQELESSTSPSKHSLPKSCTSVSKQESSKGSHRTGGQCHLPIKSHQHCYSWSDESLSMTQSETTSDQSDIEGRIRALKDELRKRKSVVNQLKKEQKKRQKERLKAQEASLIKQLESYDEFIKKTEAELSQDLETSPTAKPQIKTLSSASEKPKIKPLTPLHRSETAKNWKSLTESERSRGSLESIAEHVDASLSGSERSVSERSLSAYAKRVNEWDSRTEDFQTPSPVLRSSRKIREESGDSLENVPALHLLKELNATSRILDMSDGKVGESSKKSEIKEIEYTKLKKSKIEDAFSKEGKSDVLLKLVLEQGDSSEILSKKDLPLDSENVQKDLVGLAIENLHKSEEMLKERQSDQDMNHSPNIQSGKDIHEQKNTKEKDLSWSEHLFAPKEIPYSEDFEVSSFKKEISAELYKDDFEVSSLLSLRKDSQSCRDKPQPMRSSTSGATSFGSNEEISECLSEKSLSIHSNVHSDRLLELKSPTELMKSKERSDVEHEQQVTESPSLASVPTADELFDFHIGDRVLIGNVQPGILRFKGETSFAKGFWAGVELDKPEGNNNGTYDGIAYFECKEKHGIFAPPQKISHIPENFDDYVDINEDEDCYSDERYQCYNQEQNDTEGPKDREKDVSEYFYEKSLPSVNDIEASVNRSRSLKIETDNVQDISGVLEAHVHQQSSVDSQISSKENKDLISDATEKVSIAAEDDTLDNTFSEELEKQQQFTEEEDNLYAEASEKLCTPLLDLLTREKNQLEAQLKSSLNEEKKSKQQLEKISLLTDSLLKVFVKDTVNQLQQIKKTRDEKIQLSNQELLGDDQKKVTPQDLSQNVEEQSPSISGCFLSSELEDEKEEISSPDMCPRPESPVFGASGQEELAKRLAELELSREFLSALGDDQDWFDEDFGLSSSHKIQKNKAEETIVPLMAEPKRVTQQPCETLLAVPHTAEEVEILVHNAAEELWKWKELGHDLHSISIPTKLLGCASKGLDIESTSKRVYKQAVFDLTKEIFEEIFAEDPNLNQPVWMKPCRINSSYFRRVKNPNNLDEIKSFIASEVLKLFSLKKEPNHKTDWQKMMKFGRKKRDRVDHILVQELHEEEAQWVNYDEDELCVKMQLADGIFETLIKDTIDVLNQISEKQGRMLLV
With B1 the binding was “no binding”.
